Inconclusive means that the source gave no clear call. Such entries were picked first, then a sample of the others. For some of these results: Potencies beside an inconclusive call are fits to weak or partial responses and may not hold up. Active and inactive are the calls of the source. Unless noted, the call rests on the fitted dose curve; in most records, active means well fitted activation curve with a large enough effect in the main read-out, with a control signal flat (not every such curve was filed as active); inconclusive means small, poorly fitted or top-dose-only effect, or effect the other way, or a change in a side signal; inactive means flat fitted curve, though single readings scatter.
Tested on: not listed separately
Assay: Stat Signaling Pathway (AID 446; active means well fitted curve in either direction with a large enough effect, not every such curve was filed as active; inconclusive means small, poorly fitted or top-dose-only effect, or another doubt;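 further: ME-180 cervical cancer cells given 40 pM IL-6 alongside compound; SIE-controlled beta-lactamase reporter measured as 460/530 nm FRET emission ratio; on the % scale 0 is the no-effect control and ±100 the full control effect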)
Settings: ME-180 SIE beta-lactamase reporter, IL-6 stimulated, 5 h; at 7.69 µM (top of the series) unless noted
In short: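 Reporter line: ME-180 cervical carcinoma, SIE-beta-lactamase. Treatment: compound with 40 pM IL-6, 5 hrs, 37 C, in low-serum OPTI-MEM with 10 mM HEPES pH 7.3. Detection: 460/530 nm fluorescence.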

Amino acid sequences for entries named in this document (tags omitted). A change or cut given only in a name is not applied to a line headed by its entry.
UniProt P04150: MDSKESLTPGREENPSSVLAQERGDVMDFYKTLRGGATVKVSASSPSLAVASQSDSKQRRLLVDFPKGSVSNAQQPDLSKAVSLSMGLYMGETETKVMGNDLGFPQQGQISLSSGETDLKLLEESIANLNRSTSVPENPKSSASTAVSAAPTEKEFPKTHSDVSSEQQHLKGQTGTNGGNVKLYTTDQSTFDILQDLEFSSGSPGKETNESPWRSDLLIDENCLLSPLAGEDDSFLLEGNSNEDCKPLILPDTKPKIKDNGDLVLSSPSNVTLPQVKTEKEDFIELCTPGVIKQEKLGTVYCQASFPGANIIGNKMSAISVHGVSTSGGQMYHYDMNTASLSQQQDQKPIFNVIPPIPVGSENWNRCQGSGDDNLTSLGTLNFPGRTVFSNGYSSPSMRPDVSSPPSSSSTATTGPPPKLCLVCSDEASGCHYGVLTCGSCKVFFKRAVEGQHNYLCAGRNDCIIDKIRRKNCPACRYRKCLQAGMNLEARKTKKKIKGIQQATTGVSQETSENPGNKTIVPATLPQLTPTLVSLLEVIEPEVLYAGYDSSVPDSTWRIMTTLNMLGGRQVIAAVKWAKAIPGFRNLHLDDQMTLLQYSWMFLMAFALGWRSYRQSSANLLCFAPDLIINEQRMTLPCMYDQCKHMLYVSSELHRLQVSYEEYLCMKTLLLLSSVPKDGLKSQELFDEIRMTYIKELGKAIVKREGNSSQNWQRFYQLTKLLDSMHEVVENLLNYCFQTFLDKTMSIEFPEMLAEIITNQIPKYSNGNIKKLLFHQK
UniProt Q07343: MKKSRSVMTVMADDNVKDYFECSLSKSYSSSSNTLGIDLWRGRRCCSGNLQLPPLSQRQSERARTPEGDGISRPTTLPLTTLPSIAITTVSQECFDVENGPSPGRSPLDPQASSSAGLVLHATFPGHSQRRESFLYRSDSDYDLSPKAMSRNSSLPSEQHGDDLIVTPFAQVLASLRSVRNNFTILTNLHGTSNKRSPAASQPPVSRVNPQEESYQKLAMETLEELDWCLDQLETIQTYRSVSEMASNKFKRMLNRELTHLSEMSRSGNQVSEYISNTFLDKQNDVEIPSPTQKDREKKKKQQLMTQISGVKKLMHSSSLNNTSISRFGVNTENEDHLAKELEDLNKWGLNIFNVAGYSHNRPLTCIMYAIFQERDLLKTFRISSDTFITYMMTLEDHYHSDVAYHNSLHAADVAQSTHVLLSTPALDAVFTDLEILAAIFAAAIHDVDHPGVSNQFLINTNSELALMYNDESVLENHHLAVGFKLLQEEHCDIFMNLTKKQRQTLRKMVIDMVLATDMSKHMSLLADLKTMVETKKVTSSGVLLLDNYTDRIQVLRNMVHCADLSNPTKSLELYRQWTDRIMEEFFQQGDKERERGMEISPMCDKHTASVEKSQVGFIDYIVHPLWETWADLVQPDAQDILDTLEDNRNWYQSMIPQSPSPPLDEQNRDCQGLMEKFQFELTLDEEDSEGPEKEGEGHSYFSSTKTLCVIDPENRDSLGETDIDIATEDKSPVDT

For `CCNc1ncc2nc(-c3cccs3)c(=O)n(C[C@H]3CCCO3)c2n1`, which activity, negative = inhibition is on record?
The activity, negative = inhibition was inconclusive: 38.4% [activator].

For `CN1CCN(c2ncc3nc(-c4cccs4)c(=O)n(CCC#N)c3n2)CC1`, which activity, negative = inhibition is on record?
The activity, negative = inhibition was inconclusive: 99.5% [activator].

For `CCNc1ncc2nc(-c3ccc(Cl)cc3)c(=O)n(Cc3cccs3)c2n1`, which activity, negative = inhibition is on record?
Its activity, negative = inhibition is inconclusive: 97.2% [activator].

For `Cc1ccccc1-c1cc(NCc2ccccc2)ncn1`, which activity, negative = inhibition is on record?
Its activity, negative = inhibition is inconclusive: -0.388% [inhibitor].

With `COc1ccc(-c2nc3cnc(N4CCOCC4)nc3n(Cc3cccs3)c2=O)cc1` as the compound, how does the activity, negative = inhibition read?
Its activity, negative = inhibition is inconclusive: 35.8% [activator].

Which activity, negative = inhibition does the source give for `COc1ccc2[nH]cc(CCNc3ncncc3-c3cccnc3)c2c1` here?
The activity, negative = inhibition was inactive: 2.25%.

For `CN(C)c1ccc(-c2nc(NCCN3CCOCC3)c3ccccc3n2)cc1`, which activity, negative = inhibition is on record?
Its activity, negative = inhibition is inconclusive: 42.7% [activator].

Which activity, negative = inhibition does the source give for `O=c1c(-c2cc(F)cc(F)c2)nc2cncnc2n1-c1ccccc1` here?
The activity, negative = inhibition was inactive: -16.9%.

For `Cn1cc(-c2nc3cncnc3n(Cc3ccccc3Cl)c2=O)c2ccccc21`, which activity, negative = inhibition is on record?
Its activity, negative = inhibition is inconclusive: 59.5% [activator].

Target: Glucocorticoid receptor (Homo sapiens) (UniProt P04150)
Assay: GR-GFP Redistribution (AID 450;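 active means compounds whose dose series gives a full or clear partial fitted curve of increased nuclear translocation; inconclusive means weak partial curve or effect only at the top dose; inactive means no dose-dependent translocation response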; further: potency means the concentration at half of the fitted maximal effect)
Settings: U2OS GR-GFP nuclear translocation, laser cytometry, 2 h

With `Cc1ccccc1-c1nccc(NCc2cccnc2)n1` as the compound, how does the Potency read?
Its Potency is inactive: > 46 µM.

Which Potency does the source give for `c1csc(CNc2nc(-c3ccoc3)nc3ccccc23)c1` here?
The Potency was inconclusive: 40.8 µM [partial curve].

For `CN(C)C(=O)c1ccc(-c2ccc3ncnc(NCCN4CCOCC4)c3c2)cc1`, which Potency is on record?
The Potency was inconclusive: 24.7 µM [single point].

For `CN(C)c1ccc(-c2nc(NCCN3CCOCC3)c3ccccc3n2)cc1`, which Potency is on record?
Its Potency is inconclusive: 48 µM [single point].

Target: Mitogen-activated protein kinase 10 (Mus musculus) (UniProt Q61831)
Assay: JNK3 AlphaScreen Assay (AID 530; active means well fitted curve in either direction with a large enough effect, not every such curve was filed as active; inconclusive means small, poorly fitted or top-dose-only effect, or another doubt;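 further: kinase came from lysate of stimulated human HepG2 cells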; further: potency means the concentration at half of the fitted maximal effect;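 on activity change, negative = inhibition: signal reports phosphorylation of biotinylated GST-cJun 1-79 at Ser73 with 10 µM ATP; on the % scale 0 is the no-effect control and ±100 the full control effect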)
Settings: JNK3 lysate, c-Jun phosphorylation; activity change, negative = inhibition: at 57.1 µM (top of the series)
In short: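 Pre-activated (IL-1β/TNFα) JNK3 in HepG2 lysates phosphorylates biotin-GST-cJun(1-79), 10 uM ATP; anti-phospho-cJun(Ser73) AlphaScreen read at room temperature, pH 7.6 Tris buffer. Compounds pre-incubated 15 min as titrations.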

Which “activity change, negative = inhibition” value does the source give for `COc1ccccc1-c1cc(Nc2ccc(F)cc2)ncn1` here?
The value was inactive: -4.58%.

For `COc1ccc(Oc2ncc3nc(-c4cc(F)cc(F)c4)c(=O)n(C[C@H]4CCCO4)c3n2)cc1`, which “activity change, negative = inhibition” value is on record?
Its value is inactive: 6.15%.

Which “activity change, negative = inhibition” value does the source give for `COc1ccc(-c2nc3cnc(Nc4cccc(OC)c4)nc3n(C)c2=O)cc1` here?
Its value is inactive: -13.1%.

For `Cn1cc(-c2nc3cnc(OCc4ccccc4)nc3n(CCC#N)c2=O)c2ccccc21`, which “activity change, negative = inhibition” value is on record?
Its value is inactive: 11.8%.

Which Potency does the source give for `Cn1cc(-c2nc3cncnc3n(Cc3ccccc3Cl)c2=O)c2ccccc21` here?
The Potency was inconclusive: 0.794 µM [activator, full curve].

Target: 3',5'-cyclic-AMP phosphodiesterase 4B (Homo sapiens) (UniProt Q07343)
Assay: qHTS Assay for Inhibitors of PDE-IV (AID 607); further: potency means the concentration at half of the fitted maximal effect; on activation (PDE inhibition): % of control where 0% means no effect
Settings: HEK293 ACTOne CNG channel cells, membrane potential fluorescence; activation (PDE inhibition): at 22.9 µM (top of the series)
In short: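 Cell-based read-out of cAMP via a modified cyclic nucleotide-gated channel and membrane potential dye (535/590 nm) in HEK293 cells expressing PDE4 endogenously. Compounds tested up to 22.9 uM final; 100 uM RO 20-1724 reference.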

Which Potency does the source give for `c1csc(CNc2nc(-c3ccoc3)nc3ccccc23)c1` here?
Its Potency is inconclusive: 10 µM [activator, partial curve].

For `CCNc1ncc2nc(-c3cccs3)c(=O)n(C[C@H]3CCCO3)c2n1`, which Potency is on record?
Its Potency is inconclusive: 10 µM [activator, partial curve].

For `Cc1cnc(CNc2cc(-c3cccc(NS(C)(=O)=O)c3)ncn2)cn1`, which “activation (PDE inhibition)” value is on record?
The value was inactive: 6.66%.

With `CCNc1ncc2nc(-c3ccc(Cl)cc3)c(=O)n(Cc3cccs3)c2n1` as the compound, how does the Potency read?
The Potency was inconclusive: 3.16 µM [activator, single point].

Which Potency does the source give for `COc1ccccc1-c1nc(NCc2cccs2)c2ccccc2n1` here?
Its Potency is inconclusive: 0.631 µM [activator, partial curve].

Which Potency does the source give for `COc1ccccc1-c1cc(Nc2ccc(F)cc2)ncn1` here?
Its Potency is inconclusive: 7.94 µM [activator, partial curve].

With `c1ccc(Nc2ncncc2-c2ccc3c(c2)OCO3)cc1` as the compound, how does the Potency read?
The Potency was inconclusive: 10 µM [activator, partial curve].

With `Cc1ccccc1-c1cc(NCc2ccccc2)ncn1` as the compound, how does the Potency read?
The Potency was inconclusive: 12.6 µM [activator, single point].

Which Potency does the source give for `Cc1ccccc1-c1cncnc1NCc1ccccc1` here?
Its Potency is inconclusive: 10 µM [activator, partial curve].

Which Potency does the source give for `COc1ccc(-c2nc3cnc(N4CCOCC4)nc3n(Cc3cccs3)c2=O)cc1` here?
The Potency was active: 1.58 µM.

With `CN(Cc1ccco1)c1nc(-c2ccc3c(c2)OCO3)nc2ccccc12` as the compound, how does the Potency read?
The Potency was inconclusive: 10 µM [rising, partial curve].

For `COc1cccc(Nc2ncc3nc(C)c(=O)n(CCc4ccccc4)c3n2)c1`, which Potency is on record?
Its Potency is inconclusive: 12.6 µM [activator, partial curve].

Which Potency does the source give for `CN(Cc1ccco1)c1ncncc1-c1ccc2c(c1)OCO2` here?
Its Potency is inconclusive: 10 µM [activator, partial curve].

For `O=c1c(-c2cc(F)cc(F)c2)nc2cncnc2n1-c1ccccc1`, which Potency is on record?
The Potency was inconclusive: 3.16 µM [activator, single point].

With `CNc1ncnc2ccc(-c3cccc(OC)c3)cc12` as the compound, how does the “activation (PDE inhibition)” value read?
The value was inactive: -6.02%.

Which Potency does the source give for `c1ccc2c(NC3CC3)nc(-c3ccoc3)nc2c1` here?
Its Potency is inconclusive: 10 µM [activator, partial curve].

From PubChem BioAssay (NCATS)
